The text below walks through data of patent US4766140A, “Method of inhibiting aromatase” (Eli Lilly and Company, priority 1984, dated 1988).

SMILES strings stand for the structures. pEC50: −log10 of the molar value.

The target of the experiment is T1, aromatase (Rattus norvegicus, UniProt P22443).
T1 construct: ovarian microsomes are obtained from rats treated with pregnant mares serum gonadotropin; from tissue; host or cells: ovarian microsomes from rats treated with pregnant mares serum gonadotropin
T1 sequence (P22443 1-508): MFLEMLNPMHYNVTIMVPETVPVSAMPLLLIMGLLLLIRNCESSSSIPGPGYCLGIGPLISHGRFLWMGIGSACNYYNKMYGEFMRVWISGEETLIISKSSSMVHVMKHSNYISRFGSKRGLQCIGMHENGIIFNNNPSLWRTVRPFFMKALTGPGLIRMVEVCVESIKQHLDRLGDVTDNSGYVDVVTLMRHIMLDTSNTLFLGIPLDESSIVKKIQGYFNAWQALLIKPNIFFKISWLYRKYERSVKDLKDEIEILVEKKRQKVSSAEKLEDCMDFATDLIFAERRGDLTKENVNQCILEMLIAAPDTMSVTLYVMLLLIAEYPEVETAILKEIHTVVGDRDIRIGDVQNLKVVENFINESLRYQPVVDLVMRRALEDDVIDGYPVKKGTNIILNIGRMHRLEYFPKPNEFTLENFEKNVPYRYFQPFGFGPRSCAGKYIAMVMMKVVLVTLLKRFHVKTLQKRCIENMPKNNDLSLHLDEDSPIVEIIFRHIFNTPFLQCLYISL
Description: Aromatase inhibition in the rat ovarian microsome assay. It is filed as biochemical.

One may read the pEC50 as the EC50 on a negative log10 scale, so that one unit is a factor of ten. For the compound `Clc1ccc(COC(Cn2ccnc2)c2ccc(Cl)cc2Cl)c(Cl)c1` (stereo not drawn) [1-[2,4-dichloro-β-(2,4-dichloro-benzyloxy)phenylethyl]imidazole], the negative-log EC50 (pEC50) was 6.51.
